At least one compound was matched to its structure with a doubt left.
Assays:
CSIF [1] = assay: Conversion of CSIF to adipocytes in serum-free medium (LipidTOX neutral lipid stain); type: cell-based, chicken
Procedure: FIGS. 4A-D depict conversion of CSIF to adipocytes in serum-free medium. FIGS. 4A-C. LipidTOX™ (Thermo Fisher Scientific) neutral lipid stain of serum-free cultures of CSIF exposed to either 400 μM oleic acid (OA) alone (FIG. 4A) or with 0.5 mM IBMX (OA+IBMX, FIG. 4B), or 10 μM Rosiglitazone (OA+TZD, FIG. 4C) for 7 days. […] FIG. 4D—Normalized intracellular lipid content (in arbitrary fluorescent units) of CSIF cultures treated for 4 and 7 days as prescribed above.
To develop a protocol for conversion of the spontaneously immortalized chicken fibroblasts (CSIF line) under serum-free conditions, the present inventor seeded the CSIF at 70% confluence in the optimized serum-free DMEM/F12 medium supplemented with dexamethasone (0.1 μM), 1×ITS+3 (Sigma, 12771), and bFGF (10 ng/ml). The CSIF cells were treated for 4 or 7 days with 200 to 400 μM oleic acid alone, or in combination with 0.5 mM IBMX, or 10 μM of the FDA-approved small molecule Rosiglitazone.

[2] = tested on: stromal-vascular cells derived from chicken adipose tissues; details: oleic acid 200-400 μM, in the presence of serum; cited from earlier work
CSIF [3] = assay: Dox-induced MyoD1+MYOG conversion to myocytes, rMLC3-GFP reporter; type: cell-based, chicken; details: by day 11 of culture, 15% serum
Text: FIGS. 5A-E depict conversion of CSIF to myocytes. FIG. 5A—Phase image of CSIF expressing Dox-inducible MyoD1 and Myogenin (MYOG) for 6 days (“d6”). FIGS. 5B-C—CSIF expressing rat myosin light chain COP-GFP reporter (rMLC3-GFP) following Dox-induced MyoD1+MYOG expression for 11 days (FIG. 5B) or 30 days (FIG. 5C). About 2-4% of the cultures become positive for MLC3 (Green). MLC3 positive myoblasts maintain elongated fiber morphology for over 30 days in vitro (FIG. 5C). FIG. 5D—Fluorescence staining using phalloidin (F-Actin probe, green) showing multinucleated cells (syncytia) as well as some striation following 7 days in culture. Nuclei are stained with Hoechst (blue). FIG. 5E—Immunofluorescence staining for α1-skeletal muscle actin (ACTA1, green) and Troponin T (red) showing a clear muscle phenotype by day 7 of induction. Nuclei are stained with Hoechst (blue).
To examine if similar conversion of chicken cells to myocytes is possible, the present inventor generated several nucleic acid constructs (vectors) as is schematically illustrated in FIGS. 6-8 and 12. […] A second lentiviral vector (SEQ ID NO:2, FIG. 7) was created for Dox-inducible chicken MYOG expression included the cMyogenin coding sequence (SEQ ID NO: 7) under the control of the minimal CMV promoter (SEQ ID NO: 8). […]

primary CEF = assay: as above; type: cell-based, chicken; details: by day 11 of culture, 15% serum

CN(CCOc1ccc(CC2SC(=O)NC2=O)cc1)c1ccccn1 (stereo not drawn) [Rosiglitazone]
Normalized intracellular lipid content (CSIF [1]; 4 and 7 days, 400 μM OA with small molecule (FIG. 4D)): optimal results
Adipogenesis (neutral lipid stain) (CSIF [1]; 7 days, with 400 μM oleic acid, IBMX 0.5 mM, Rosiglitazone 10 μM): strong adipogenesis
Adipogenic phenotype (cell shape) (CSIF [1]; added to oleic acid, IBMX 0.5 mM, Rosiglitazone 10 μM): supported a rounded adipogenic phenotype

C[C@@H]1C[C@H]2[C@@H]3CCC4=CC(=O)C=C[C@]4(C)[C@@]3(F)[C@@H](O)C[C@]2(C)[C@@]1(O)C(=O)CO [dexamethasone]
Differentiation of chicken preadipocytes to adipocytes [2]: no affect

C[C@H]1c2cccc(O)c2C(=O)C2=C(O)[C@]3(O)C(=O)C(C(N)=O)=C(O)[C@@H](N(C)C)[C@@H]3[C@@H](O)[C@@H]21 [doxycycline, Doxycycline]
Expression of MLC3 (GFP reporter) (CSIF [3]): strong expression of MLC3
Expression of MLC3 (GFP reporter) (primary CEF): strong expression of MLC3

— patent US12325866B2, “Systems and methods for growing cells in vitro” (Yissum Research Development Company of the Hebrew …, priority 2016, dated 2025)
